Measurements: patent publication US20140162952A1
No constants are given. Whether binding was seen depends on the method and setting. For part of these data: Binding seen in cells or lysates may run through a third protein. Some results given as binding are weak or reduced against the parent protein; the word gives no strength. Tags and fused reporters may be left off the sequences shown.

By UniProt entry, the sequences of proteins in these tests, tags left out. Where a name states a change or a piece, a line headed by the entry shows the natural chain unless it says otherwise.
UniProt Q99623: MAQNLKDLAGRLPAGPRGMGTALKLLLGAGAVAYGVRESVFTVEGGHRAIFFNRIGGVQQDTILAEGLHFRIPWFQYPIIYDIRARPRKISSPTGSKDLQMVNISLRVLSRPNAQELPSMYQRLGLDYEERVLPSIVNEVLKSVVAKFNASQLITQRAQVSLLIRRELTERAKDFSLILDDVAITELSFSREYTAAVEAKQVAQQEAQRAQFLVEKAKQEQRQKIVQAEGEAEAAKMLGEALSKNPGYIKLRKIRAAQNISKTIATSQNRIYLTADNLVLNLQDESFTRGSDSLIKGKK
UniProt P03372: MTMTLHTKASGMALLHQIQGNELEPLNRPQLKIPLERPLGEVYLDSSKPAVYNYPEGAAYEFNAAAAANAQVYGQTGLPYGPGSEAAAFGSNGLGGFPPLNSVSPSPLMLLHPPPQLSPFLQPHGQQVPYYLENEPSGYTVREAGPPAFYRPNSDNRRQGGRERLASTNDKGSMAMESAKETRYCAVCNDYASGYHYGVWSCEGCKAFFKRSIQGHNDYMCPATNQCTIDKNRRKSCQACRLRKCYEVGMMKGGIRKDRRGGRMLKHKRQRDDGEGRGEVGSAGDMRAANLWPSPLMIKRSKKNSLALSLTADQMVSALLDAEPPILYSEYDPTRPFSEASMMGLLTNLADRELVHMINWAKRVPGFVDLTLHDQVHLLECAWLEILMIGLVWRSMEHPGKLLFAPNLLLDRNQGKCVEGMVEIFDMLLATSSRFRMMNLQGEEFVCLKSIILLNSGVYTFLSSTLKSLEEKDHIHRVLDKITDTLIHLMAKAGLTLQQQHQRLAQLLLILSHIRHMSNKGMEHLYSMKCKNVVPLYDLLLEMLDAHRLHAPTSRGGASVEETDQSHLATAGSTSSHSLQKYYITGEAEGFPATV

Tests used:
[1] = target: 6×His-tagged recombinant PHB2/REA protein (human) (UniProt Q99623); assay: fluorescence correlation spectroscopy, 10 nM FITC-tagged ERAP1-peptide with rising 6xHis-PHB2/REA
[2] = target: 6×His-tagged recombinant PHB2/REA protein (human) (UniProt Q99623); assay: fluorescence correlation spectroscopy with FITC-tagged ERAP1-peptide
[3] = target: 6×His-tagged recombinant PHB2/REA protein (human) (UniProt Q99623); assay: Biacore with HA-tagged ERAP1-peptide
[4] = target: 6×His-tagged recombinant PHB2/REA protein (human) (UniProt Q99623); assay: Biacore, 6xHis-PHB2/REA immobilised on the chip, HA-tagged ERAP1-peptide injected; plot of the equilibrium response against the peptide concentration
[5] = target: inherent PHB2/REA (prohibitin 2 / Repressor of Estrogen Activity) (human) (UniProt Q99623); assay: IP-Western of cell fractions (KPL-3C) and immunofluorescence (MCF-7)
[6] = target: 6×His-tagged recombinant PHB2/REA protein (human) (UniProt Q99623); assay: Ni-resin pull-down and Western blot
[7] = target: 6×His-tagged recombinant PHB2/REA protein (human) (UniProt Q99623); assay: Ni-resin pull-down of 10 µg His-PHB2 mixed with lysate of Flag-tagged ERAP1 expressing cells and HA-peptide; blot for Peptide; competitor: Flag-ERAP1
[8] = target: inherent PHB2/REA (prohibitin 2 / Repressor of Estrogen Activity) (human) (UniProt Q99623); assay: co-IP from cytoplasm and nuclear fractions of KPL-3C cells, 24 h, 10 nM E2 and/or 10 µM HA-tagged ERAP1-peptide; blot anti-HA
[9] = target: estrogen receptor α (ERα) (human) (UniProt P03372); assay: as above

Measured: binding

B1: FITC-tagged ERAP1-peptide (peptide)
peptide: RRRRRRRRRRRQMLSDLTLQLRQR
modifications: FITC tag, position not stated
binds: [1] | [2]

B2: HA-tagged ERAP1-peptide (peptide)
peptide: RRRRRRRRRRRQMLSDLTLQLRQR
binds: [3] | [4] | [5] | [6] | [7] | [8] | [9]
